Binding data for 2 molecules are collected here from paper PMC2643527.

The chains behind the UniProt entries cited, without tags or fusion partners.
UniProt Q9QYJ3: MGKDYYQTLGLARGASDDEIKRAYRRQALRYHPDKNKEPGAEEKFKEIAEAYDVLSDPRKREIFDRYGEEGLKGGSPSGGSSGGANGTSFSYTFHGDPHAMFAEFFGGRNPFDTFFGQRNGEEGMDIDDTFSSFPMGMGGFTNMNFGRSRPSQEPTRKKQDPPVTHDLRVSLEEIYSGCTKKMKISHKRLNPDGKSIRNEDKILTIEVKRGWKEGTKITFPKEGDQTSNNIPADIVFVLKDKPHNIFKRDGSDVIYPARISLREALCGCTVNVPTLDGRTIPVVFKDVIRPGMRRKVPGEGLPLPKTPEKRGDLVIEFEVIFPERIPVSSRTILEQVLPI

One experiment concerns the target T1, GST-CSPα 1-112 (rat) (UniProt P60905).
T1 sequence: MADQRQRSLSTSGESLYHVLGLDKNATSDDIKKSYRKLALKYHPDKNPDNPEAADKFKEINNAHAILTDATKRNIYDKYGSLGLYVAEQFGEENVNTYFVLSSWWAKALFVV
Description: pull-down; GST-CSPα fusion proteins immobilised on glutathione beads, incubated with 110 µg detergent-solubilised CAD cell homogenate (control, heat shocked 30 min 42°C with 5 h recovery, or 2 µM geldanamycin-treated), with or without 2 mM ATP or GDP; 20 mM MOPS, 4.5 mM Mg acetate, 150 mM KCl, 0.5% Tx100, 1 hour at 37°C; Western blot; only the target purified.

Experiment [1] has as its target T2, GST-CSPα 1-198 (full length cysteine string protein alpha) (rat) (UniProt P60905).
T2 sequence: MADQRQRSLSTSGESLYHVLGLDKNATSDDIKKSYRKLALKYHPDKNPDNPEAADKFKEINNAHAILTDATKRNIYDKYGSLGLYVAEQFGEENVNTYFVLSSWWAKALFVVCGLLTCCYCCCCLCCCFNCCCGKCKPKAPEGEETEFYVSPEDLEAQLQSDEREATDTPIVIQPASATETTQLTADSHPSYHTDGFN
The description is as above.

Experiment [2] deals with myc-tagged rat CSPα 1-198 expressed in CAD cells (rat) (UniProt P60905). Description: SDS-resistant dimer band on SDS-PAGE and Western blot; CAD cells transfected with CSPα, heat shocked for 40 min at 42°C and allowed to recover for 5 hours; CSPα detected by Western.
For experiment [3] the target is unchanged. Description: SDS-resistant dimer band on SDS-PAGE and Western blot; CAD cells transfected with CSPα, not heat shocked (with or without 200 µM quercetin); 70 kDa band kept after sample buffer at 80°C for 10 min; CSPα detected by Western.
Experiment [4] shares this target. In words: condition: only after heat shock (40 min at 42°C, 5 hours recovery); SDS-resistant dimer band on SDS-PAGE and Western blot; CAD cells transfected with CSPα, heat shocked for 40 min at 42°C and allowed to recover for 5 hours; CSPα detected by Western.

These are yes or no findings as the source states them, for the method shown. For some assays here: Binding seen in cells or lysates may run through a third protein. Some results given as binding are weak or reduced against the parent protein; the word gives no strength. Tags and fused reporters may be left off the sequences shown.

With “Hsp40 (endogenous, CAD cell homogenate) (from UniProt Q9QYJ3 1-340)”, the binding entry (with GST-CSPα 1-112 (rat); in experiment [1]) was “binds” each time.

B1: myc-tagged rat CSPα 1-198 expressed in CAD cells (protein, UniProt P60905 1-198)
chain: MADQRQRSLSTSGESLYHVLGLDKNATSDDIKKSYRKLALKYHPDKNPDNPEAADKFKEINNAHAILTDATKRNIYDKYGSLGLYVAEQFGEENVNTYFVLSSWWAKALFVVCGLLTCCYCCCCLCCCFNCCCGKCKPKAPEGEETEFYVSPEDLEAQLQSDEREATDTPIVIQPASATETTQLTADSHPSYHTDGFN
With B1, the binding result in experiment [2] was “binds”; in experiment [3], “binds”; in experiment [4], “no binding”.
